# Experimental data reported in the supplement of paper PMC6411743.
# Chains of the proteins cited; added tags and fusions are not shown. Lines headed by an entry give the natural chain unless they say otherwise; changes in a name come on top.
# UniProt Q96ES7: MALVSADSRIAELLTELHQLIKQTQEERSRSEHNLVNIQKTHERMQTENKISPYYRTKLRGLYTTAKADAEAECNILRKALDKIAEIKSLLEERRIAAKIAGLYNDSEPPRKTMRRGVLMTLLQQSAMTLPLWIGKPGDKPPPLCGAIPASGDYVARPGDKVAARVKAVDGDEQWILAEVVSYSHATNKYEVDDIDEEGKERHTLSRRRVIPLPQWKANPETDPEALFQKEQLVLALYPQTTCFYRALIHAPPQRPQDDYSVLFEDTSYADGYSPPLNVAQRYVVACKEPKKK
# UniProt Q96SN8: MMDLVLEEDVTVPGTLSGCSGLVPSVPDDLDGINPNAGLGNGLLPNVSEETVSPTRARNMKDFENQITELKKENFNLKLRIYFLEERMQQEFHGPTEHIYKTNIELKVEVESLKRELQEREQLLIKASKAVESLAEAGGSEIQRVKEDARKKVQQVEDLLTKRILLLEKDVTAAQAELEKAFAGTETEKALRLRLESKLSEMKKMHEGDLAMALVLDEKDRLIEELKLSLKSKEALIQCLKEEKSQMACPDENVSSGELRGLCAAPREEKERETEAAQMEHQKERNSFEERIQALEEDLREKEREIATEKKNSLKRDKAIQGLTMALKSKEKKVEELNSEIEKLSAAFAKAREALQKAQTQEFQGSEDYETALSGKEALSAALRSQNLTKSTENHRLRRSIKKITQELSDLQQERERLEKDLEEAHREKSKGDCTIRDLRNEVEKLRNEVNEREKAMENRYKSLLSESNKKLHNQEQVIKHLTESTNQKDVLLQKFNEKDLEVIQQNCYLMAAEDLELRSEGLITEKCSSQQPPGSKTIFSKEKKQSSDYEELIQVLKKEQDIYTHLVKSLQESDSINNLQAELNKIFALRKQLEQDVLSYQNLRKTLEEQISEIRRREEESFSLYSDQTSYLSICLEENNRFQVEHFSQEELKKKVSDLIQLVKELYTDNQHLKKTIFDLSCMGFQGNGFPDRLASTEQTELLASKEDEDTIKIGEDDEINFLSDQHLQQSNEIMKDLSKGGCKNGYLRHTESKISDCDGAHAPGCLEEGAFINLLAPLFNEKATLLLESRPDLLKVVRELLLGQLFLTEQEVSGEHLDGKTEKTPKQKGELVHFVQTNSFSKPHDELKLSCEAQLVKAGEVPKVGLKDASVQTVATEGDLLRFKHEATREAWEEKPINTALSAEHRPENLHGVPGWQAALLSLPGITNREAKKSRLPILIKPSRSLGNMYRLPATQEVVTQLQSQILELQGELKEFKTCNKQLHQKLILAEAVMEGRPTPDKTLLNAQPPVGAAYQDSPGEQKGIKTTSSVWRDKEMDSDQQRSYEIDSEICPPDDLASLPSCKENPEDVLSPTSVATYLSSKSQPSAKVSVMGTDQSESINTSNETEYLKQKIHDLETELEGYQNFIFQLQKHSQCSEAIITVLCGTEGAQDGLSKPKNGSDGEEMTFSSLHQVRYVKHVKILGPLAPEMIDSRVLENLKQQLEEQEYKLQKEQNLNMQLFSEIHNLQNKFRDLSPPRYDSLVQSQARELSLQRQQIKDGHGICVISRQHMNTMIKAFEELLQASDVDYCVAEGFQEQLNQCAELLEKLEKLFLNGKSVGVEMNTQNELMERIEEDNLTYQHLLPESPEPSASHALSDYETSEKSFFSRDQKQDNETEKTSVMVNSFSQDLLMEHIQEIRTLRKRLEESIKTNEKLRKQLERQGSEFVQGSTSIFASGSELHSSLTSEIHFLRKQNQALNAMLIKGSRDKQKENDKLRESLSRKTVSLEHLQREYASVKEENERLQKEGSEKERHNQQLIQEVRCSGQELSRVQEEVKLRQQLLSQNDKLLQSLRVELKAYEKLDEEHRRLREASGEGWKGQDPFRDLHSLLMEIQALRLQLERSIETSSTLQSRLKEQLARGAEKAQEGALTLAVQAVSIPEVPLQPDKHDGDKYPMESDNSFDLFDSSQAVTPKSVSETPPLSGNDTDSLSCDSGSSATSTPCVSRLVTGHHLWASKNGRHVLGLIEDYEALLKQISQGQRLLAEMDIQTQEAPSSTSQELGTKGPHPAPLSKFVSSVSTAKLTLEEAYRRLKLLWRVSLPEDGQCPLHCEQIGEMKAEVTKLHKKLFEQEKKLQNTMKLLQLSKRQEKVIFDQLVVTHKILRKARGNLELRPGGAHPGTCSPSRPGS
# UniProt Q96JG8: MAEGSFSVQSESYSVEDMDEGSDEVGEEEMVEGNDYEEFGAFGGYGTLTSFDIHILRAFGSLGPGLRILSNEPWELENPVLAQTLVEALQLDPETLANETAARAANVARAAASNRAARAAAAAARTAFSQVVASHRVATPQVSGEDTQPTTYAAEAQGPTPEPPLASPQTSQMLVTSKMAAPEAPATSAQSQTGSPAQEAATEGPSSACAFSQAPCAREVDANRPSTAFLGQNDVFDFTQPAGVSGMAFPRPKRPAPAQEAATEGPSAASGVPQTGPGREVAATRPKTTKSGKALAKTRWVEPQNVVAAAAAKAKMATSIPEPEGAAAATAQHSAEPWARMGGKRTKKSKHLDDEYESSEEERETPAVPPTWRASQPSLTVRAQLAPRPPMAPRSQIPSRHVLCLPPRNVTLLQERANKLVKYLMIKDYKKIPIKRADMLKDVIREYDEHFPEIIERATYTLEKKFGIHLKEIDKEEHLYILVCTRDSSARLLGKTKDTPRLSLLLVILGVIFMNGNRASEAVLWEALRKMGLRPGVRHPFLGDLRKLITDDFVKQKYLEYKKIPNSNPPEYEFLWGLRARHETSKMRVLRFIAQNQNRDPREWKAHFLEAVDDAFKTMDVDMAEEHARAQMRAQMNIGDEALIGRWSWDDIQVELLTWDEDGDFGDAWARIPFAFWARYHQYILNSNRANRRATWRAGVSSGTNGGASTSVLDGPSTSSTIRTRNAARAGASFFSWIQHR
# UniProt Q96PY6: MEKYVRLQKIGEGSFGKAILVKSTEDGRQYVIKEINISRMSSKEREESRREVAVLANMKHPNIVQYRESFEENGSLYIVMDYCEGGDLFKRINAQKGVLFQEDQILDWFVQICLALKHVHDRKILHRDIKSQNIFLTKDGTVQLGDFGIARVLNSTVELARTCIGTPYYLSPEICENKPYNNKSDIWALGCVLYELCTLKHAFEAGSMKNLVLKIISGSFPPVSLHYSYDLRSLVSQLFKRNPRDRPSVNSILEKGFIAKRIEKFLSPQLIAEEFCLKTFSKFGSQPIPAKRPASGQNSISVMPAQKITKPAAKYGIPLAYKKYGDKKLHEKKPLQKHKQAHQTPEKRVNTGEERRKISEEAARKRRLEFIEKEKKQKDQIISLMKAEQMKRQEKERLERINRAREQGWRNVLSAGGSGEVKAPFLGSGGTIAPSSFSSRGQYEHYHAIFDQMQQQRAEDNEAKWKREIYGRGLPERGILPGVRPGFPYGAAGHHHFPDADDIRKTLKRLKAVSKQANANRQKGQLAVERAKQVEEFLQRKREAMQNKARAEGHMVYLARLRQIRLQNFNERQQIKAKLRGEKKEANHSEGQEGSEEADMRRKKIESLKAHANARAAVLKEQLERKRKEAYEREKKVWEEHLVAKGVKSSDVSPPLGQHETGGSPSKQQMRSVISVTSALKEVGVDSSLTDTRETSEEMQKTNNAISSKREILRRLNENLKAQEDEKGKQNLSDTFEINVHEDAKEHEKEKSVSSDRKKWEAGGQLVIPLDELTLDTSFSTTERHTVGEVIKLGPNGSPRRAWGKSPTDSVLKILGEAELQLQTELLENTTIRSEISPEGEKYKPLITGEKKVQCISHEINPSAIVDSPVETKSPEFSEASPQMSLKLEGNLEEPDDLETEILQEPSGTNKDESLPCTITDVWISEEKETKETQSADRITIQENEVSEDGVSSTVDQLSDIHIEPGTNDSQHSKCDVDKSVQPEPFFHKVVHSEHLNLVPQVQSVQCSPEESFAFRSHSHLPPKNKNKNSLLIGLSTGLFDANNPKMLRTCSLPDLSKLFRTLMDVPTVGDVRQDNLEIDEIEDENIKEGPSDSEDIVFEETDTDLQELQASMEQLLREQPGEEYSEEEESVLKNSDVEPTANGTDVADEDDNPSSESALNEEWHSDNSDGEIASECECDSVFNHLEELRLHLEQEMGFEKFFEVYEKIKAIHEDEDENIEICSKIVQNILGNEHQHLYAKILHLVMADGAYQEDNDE
# UniProt Q96KC2: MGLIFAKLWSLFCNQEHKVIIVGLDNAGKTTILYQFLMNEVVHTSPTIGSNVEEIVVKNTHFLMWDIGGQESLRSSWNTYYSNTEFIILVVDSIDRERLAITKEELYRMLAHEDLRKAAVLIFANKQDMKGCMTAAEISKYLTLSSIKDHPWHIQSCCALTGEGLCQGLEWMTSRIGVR
# UniProt Q96QT6: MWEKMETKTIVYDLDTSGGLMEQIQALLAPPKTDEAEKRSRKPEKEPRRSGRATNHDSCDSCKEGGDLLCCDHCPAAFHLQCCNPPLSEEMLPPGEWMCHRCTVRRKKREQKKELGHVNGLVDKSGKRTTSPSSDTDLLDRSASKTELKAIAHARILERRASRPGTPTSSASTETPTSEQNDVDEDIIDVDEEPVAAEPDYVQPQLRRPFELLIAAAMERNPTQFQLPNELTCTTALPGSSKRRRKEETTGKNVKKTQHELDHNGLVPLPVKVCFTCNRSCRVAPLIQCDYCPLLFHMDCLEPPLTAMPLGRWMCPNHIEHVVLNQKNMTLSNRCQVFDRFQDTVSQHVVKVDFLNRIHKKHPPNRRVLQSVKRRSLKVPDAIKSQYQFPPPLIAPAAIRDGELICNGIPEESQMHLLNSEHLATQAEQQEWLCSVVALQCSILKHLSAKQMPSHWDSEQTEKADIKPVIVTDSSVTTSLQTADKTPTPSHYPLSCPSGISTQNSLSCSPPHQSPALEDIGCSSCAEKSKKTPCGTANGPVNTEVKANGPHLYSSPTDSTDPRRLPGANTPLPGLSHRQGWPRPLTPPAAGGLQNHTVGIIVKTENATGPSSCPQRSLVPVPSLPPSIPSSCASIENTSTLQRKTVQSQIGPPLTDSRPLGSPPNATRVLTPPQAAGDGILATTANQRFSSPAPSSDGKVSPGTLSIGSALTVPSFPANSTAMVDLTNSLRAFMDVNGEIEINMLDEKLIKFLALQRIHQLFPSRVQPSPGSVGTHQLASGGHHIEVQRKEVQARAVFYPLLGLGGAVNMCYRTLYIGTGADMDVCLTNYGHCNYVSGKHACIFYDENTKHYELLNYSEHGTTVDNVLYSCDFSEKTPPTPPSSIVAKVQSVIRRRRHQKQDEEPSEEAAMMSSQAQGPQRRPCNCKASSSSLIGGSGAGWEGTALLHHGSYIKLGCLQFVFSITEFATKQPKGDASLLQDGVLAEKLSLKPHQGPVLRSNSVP
# UniProt Q96QE5: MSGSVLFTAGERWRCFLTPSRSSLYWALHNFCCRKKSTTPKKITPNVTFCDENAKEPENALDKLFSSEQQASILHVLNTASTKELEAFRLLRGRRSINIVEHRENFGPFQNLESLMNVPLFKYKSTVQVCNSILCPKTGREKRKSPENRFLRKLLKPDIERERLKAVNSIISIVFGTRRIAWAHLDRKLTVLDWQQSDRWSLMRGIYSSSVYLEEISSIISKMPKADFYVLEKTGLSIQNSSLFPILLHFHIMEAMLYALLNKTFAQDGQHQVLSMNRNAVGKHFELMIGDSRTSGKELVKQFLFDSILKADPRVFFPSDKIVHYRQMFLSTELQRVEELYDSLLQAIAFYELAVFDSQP
# UniProt Q96C86: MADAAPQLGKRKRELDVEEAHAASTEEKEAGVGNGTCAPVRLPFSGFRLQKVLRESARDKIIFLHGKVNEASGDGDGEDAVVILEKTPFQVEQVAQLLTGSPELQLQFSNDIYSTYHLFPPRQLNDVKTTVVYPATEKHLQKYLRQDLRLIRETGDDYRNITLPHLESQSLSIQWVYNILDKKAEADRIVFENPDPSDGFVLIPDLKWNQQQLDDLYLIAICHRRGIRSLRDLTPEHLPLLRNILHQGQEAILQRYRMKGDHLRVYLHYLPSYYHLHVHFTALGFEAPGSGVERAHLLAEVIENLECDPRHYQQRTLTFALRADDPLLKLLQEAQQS
# UniProt Q96GY3: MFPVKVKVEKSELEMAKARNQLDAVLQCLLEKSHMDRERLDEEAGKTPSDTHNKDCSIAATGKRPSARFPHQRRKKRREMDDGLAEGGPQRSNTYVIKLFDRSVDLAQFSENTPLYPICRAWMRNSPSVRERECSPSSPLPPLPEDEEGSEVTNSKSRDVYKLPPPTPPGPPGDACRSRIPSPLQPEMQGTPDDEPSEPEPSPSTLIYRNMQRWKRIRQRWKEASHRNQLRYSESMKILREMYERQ
# UniProt Q96FX2: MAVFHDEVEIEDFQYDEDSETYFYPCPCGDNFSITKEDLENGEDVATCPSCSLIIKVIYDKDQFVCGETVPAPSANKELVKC
# UniProt Q96KF7: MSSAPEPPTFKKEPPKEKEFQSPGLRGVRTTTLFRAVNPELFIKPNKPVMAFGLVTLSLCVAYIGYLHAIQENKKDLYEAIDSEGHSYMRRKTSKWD
# ± gives the standard deviation of the averaged measurements. The list shows a part of the results, in another mix than the full data.
# Compound: Nc1ncnc2c1ncn2[C@@H]1O[C@H](COP(=O)(O)OP(=O)(O)OP(=O)(O)O)[C@@H](O)[C@H]1O [adenosine triphosphate]
# Test: NP40-soluble protein abundance relative to vehicle (solubility fold change) (ratio); higher = more soluble protein in presence of ATP
# How it was run: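 Across three independent experiments, values are fold changes against the detergent-processed vehicle for each replicate, based on vsn-normalised intensities. The samples were Jurkat crude lysate treated with eight concentrations (0.1 to 10 mM) for 10 min at room temperature and then 3 min at 37 °C. Lysate was solubilised with 0.8% NP40 and benzonase, ultracentrifuged, and the supernatant analysed by TMT-labelled LC-MS/MS.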
Target,NP40-soluble protein abundance (concentration: 1mM),NP40-soluble protein abundance (concentration: 2mM),NP40-soluble protein abundance (concentration: 4mM),NP40-soluble protein abundance (concentration: 6mM),NP40-soluble protein abundance (concentration: 8mM),NP40-soluble protein abundance (concentration: 10mM)
UniProt Q96HA7 and related entries,1.03 ± 0.021,1.03 ± 0.083,1.07 ± 0.12,1.09 ± 0.12,1.06 ± 0.1,1.13 ± 0.11
RSPRY1 (UniProt Q96DX4),1.08 ± 0.2,1.07 ± 0.12,1.05 ± 0.061,1.04 ± 0.085,1.09 ± 0.075,1.09 ± 0.18
UniProt Q96ES7,0.983 ± 0.12,1.02 ± 0.14,0.984 ± 0.13,1.01 ± 0.12,0.98 ± 0.078,1 ± 0.096
UniProt Q96SN8 and related entries,1.08 ± 0.051,1.03 ± 0.039,1.04 ± 0.038,1.01 ± 0.14,1.02 ± 0.11,1.01 ± 0.069
UniProt Q96FJ0 and related entries,1.12 ± 0.068,1.12 ± 0.13,1.2 ± 0.12,1.16 ± 0.14,1.22 ± 0.12,1.22 ± 0.15
UniProt Q96QU8 and related entries,1.02 ± 0.012,1.03 ± 0.055,1.02 ± 0.02,0.962 ± 0.097,0.971 ± 0.013,1.03 ± 0.046
UniProt Q96JG8 and related entries,1.05 ± 0.041,1.1 ± 0.019,1.06 ± 0.054,1.04 ± 0.13,1.1 ± 0.12,1.07 ± 0.094
UniProt Q96PY6 and related entries,1.03 ± 0.074,1.03 ± 0.06,1.03 ± 0.035,0.993 ± 0.065,1 ± 0.045,1 ± 0.048
UniProt Q96KC2,1.07 ± 0.2,0.944 ± 0.055,0.957 ± 0.048,0.973 ± 0.12,1.01 ± 0.032,0.993 ± 0.031
PHF12 (UniProt Q96QT6),1.22 ± 0.076,1.37 ± 0.15,1.44 ± 0.21,1.36 ± 0.033,1.27 ± 0.07,1.4 ± 0.033
UniProt Q96K58 and related entries,1.07 ± 0.086,1.04 ± 0.047,1.04 ± 0.029,1.08 ± 0.08,1.01 ± 0.051,1.011 ± 0.0076
UniProt Q96QE5 and related entries,0.976 ± 0.13,0.983 ± 0.091,1.02 ± 0.081,0.837 ± 0.065,1.18 ± 0.037,1.17 ± 0.15
UniProt Q96Q05-3|Q96Q05 and related entries,0.996 ± 0.053,0.981 ± 0.033,0.986 ± 0.046,0.945 ± 0.061,0.976 ± 0.067,0.996 ± 0.058
DCPS (UniProt Q96C86),1 ± 0.027,0.974 ± 0.045,0.958 ± 0.044,1.01 ± 0.058,0.984 ± 0.069,0.937 ± 0.052
EDC3 (UniProt Q96F86),1.11 ± 0.047,1.1 ± 0.033,1.09 ± 0.053,1.13 ± 0.029,1.09 ± 0.081,1.08 ± 0.054
INTS4 (UniProt Q96HW7),1.13 ± 0.039,1.11 ± 0.026,1.15 ± 0.08,1.13 ± 0.053,1.2 ± 0.055,1.19 ± 0.043
ANKRD27 (UniProt Q96NW4),1.02 ± 0.046,1.05 ± 0.067,1.01 ± 0.049,1 ± 0.09,1.01 ± 0.039,1.03 ± 0.039
UniProt Q96G28,0.969 ± 0.092,0.959 ± 0.05,0.932 ± 0.032,0.961 ± 0.058,0.92 ± 0.0096,0.888 ± 0.034
UniProt Q96P47 and related entries,1.04 ± 0.043,1.08 ± 0.09,1.17 ± 0.087,1.11 ± 0.1,1.2 ± 0.29,1.16 ± 0.26
HEXIM2 (UniProt Q96MH2),1.04 ± 0.097,0.974 ± 0.075,0.969 ± 0.074,0.956 ± 0.12,0.986 ± 0.026,1.01 ± 0.035
UniProt Q96JM7 and related entries,1.11 ± 0.088,1.09 ± 0.055,1.1 ± 0.044,1.09 ± 0.075,1.16 ± 0.038,1.14 ± 0.06
LIN37 (UniProt Q96GY3),0.949 ± 0.091,0.983 ± 0.075,0.969 ± 0.055,1.03 ± 0.056,1.03 ± 0.038,1.03 ± 0.12
SCLT1 (UniProt Q96NL6),0.94 ± 0.029,0.934 ± 0.073,0.91 ± 0.046,0.913 ± 0.025,0.979 ± 0.015,0.937 ± 0.058
UniProt Q96JK2 and related entries,0.9454 ± 0.0066,0.973 ± 0.033,0.964 ± 0.038,0.951 ± 0.012,0.951 ± 0.015,0.9691 ± 0.0092
UIMC1 (UniProt Q96RL1),0.949 ± 0.095,0.967 ± 0.07,0.979 ± 0.064,1.01 ± 0.068,0.961 ± 0.046,0.977 ± 0.078
DPH3 (UniProt Q96FX2),0.906 ± 0.15,0.917 ± 0.2,0.981 ± 0.056,1.03 ± 0.19,0.953 ± 0.13,0.942 ± 0.16
UniProt Q96QD8 and related entries,1.03 ± 0.078,1.03 ± 0.052,0.987 ± 0.011,1.1 ± 0.031,0.916 ± 0.013,0.908 ± 0.046
UniProt Q96KF7,0.977 ± 0.061,1.02 ± 0.016,1.04 ± 0.049,1.07 ± 0.037,0.998 ± 0.023,1 ± 0.022
UniProt Q96HI0 and related entries,1.02 ± 0.056,0.9525 ± 0.0094,1.05 ± 0.096,0.8897 ± 0.004,0.948 ± 0.042,0.886 ± 0.029
UniProt Q96J02 and related entries,1.13 ± 0.046,1.13 ± 0.054,1.13 ± 0.023,1.06 ± 0.081,1.15 ± 0.043,1.14 ± 0.041

# Reformatted: results already given
Target	NP40-soluble protein abundance (concentration: 1mM)	NP40-soluble protein abundance (concentration: 2mM)	NP40-soluble protein abundance (concentration: 4mM)	NP40-soluble protein abundance (concentration: 6mM)	NP40-soluble protein abundance (concentration: 8mM)	NP40-soluble protein abundance (concentration: 10mM)
RSPRY1 (UniProt Q96DX4)	1.08 ± 0.2	1.07 ± 0.12	1.05 ± 0.061	1.04 ± 0.085	1.09 ± 0.075	1.09 ± 0.18
DCPS (UniProt Q96C86)	1 ± 0.027	0.974 ± 0.045	0.958 ± 0.044	1.01 ± 0.058	0.984 ± 0.069	0.937 ± 0.052
ANKRD27 (UniProt Q96NW4)	1.02 ± 0.046	1.05 ± 0.067	1.01 ± 0.049	1 ± 0.09	1.01 ± 0.039	1.03 ± 0.039
UniProt Q96G28	0.969 ± 0.092	0.959 ± 0.05	0.932 ± 0.032	0.961 ± 0.058	0.92 ± 0.0096	0.888 ± 0.034
UniProt Q96P47 and related entries	1.04 ± 0.043	1.08 ± 0.09	1.17 ± 0.087	1.11 ± 0.1	1.2 ± 0.29	1.16 ± 0.26
